What follows is the remainder of the data, with few or none of the hits. The source made the active and inactive calls.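 How the source made its calls: active means every separate test run was called active for a drop in luminescence, with AC50 within twice the top valid dose (actives reach about 71 µM in these data); inconclusive means the separate test runs disagree in their calls; inactive means all runs inactive, including signal change in the wrong direction.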

This assay in a line: AlphaScreen signal interference compounds, dose response, artefact control for ARNT-TACC3 interaction inhibitor project, biochemical, luminescence, cherry-pick (AID 651705).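 Further: 0% = neutral control wells with protein and -100% = buffer without protein.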 The conditions noted are these: His-ARNT PASB-GST AlphaScreen artifact counter-screen; at 68 µM (top of the series). For orientation: Bead proximity is the source of the signal in Alpha formats.
Turning to `O=C1NC[C@H](c2ccccc2)OC(=O)[C@H](Cc2ccc(F)cc2)CC/C=C/C[C@@H]1CC(=O)N(CCO)Cc1ccccc1`, the activity change, negative = signal decrease is inactive: -22.6%.

The values above are taken from PubChem BioAssay AID651705 (Broad Institute, 2012).
